Test results as given in PubChem BioAssay AID504444 (National Center for Advancing Translational Sciences (NCATS), 2011).
The campaign covered roughly 360,000 compounds. About 7,500 (2.1%) were called active. The shares of active, inactive and inconclusive entries below differ from those in the screen. Calls follow the shape of the dose curve; as a rule, active = well fitted inhibition curve with a large enough effect; inconclusive = small, poorly fitted or top-dose-only effect, or effect the other way; inactive = flat fitted curve, though single readings scatter. A potency beside an inconclusive call is a rough fit, not a confirmed value.

Assay: Nrf2 qHTS screen for inhibitors; also: nearly all actives have a fitted effect of over 60% in size
Conditions: A549 ARE-Fluc reporter, luciferase luminescence, 18-24 h; activity change, negative = inhibition: at 46 µM (top of the series)
Outline: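 A549 ARE_Fluc cells, 5000/well, 5% FBS OPTI-MEM; compounds in dose-response, 18-24 h at 37 °C/5% CO2; CellTiter-Fluor viability read (Ex 405/Em 525), then BugLite luciferase luminescence = Nrf2 activity.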
% is scaled to controls: 0 for no effect and ±100 for the full control effect; potency is read from the fitted curve at half-maximal effect.

SMILES	Potency	activity change, negative = inhibition
Cn1nnc2cc(C(=O)NCCC3=CCCCC3)ccc21	inconclusive: 0.731 µM [activator, full curve, poor fit]	–
O=C1C(=O)N(C2CCN(C(=O)c3ccc(F)cc3)CC2)CCN1Cc1ccc(F)cc1	inconclusive: 18.4 µM [activator, single point]	–
Cc1cccc2c(=O)n3c(cc12)-c1[nH]c2ccccc2c1CC3	–	inactive: -5.75%
CCOC(=O)c1sc(NNC(=O)c2ccc(F)cc2)nc1C	inconclusive: 29.1 µM [falling, single point]	–
CCc1nnc2c3ccccc3nc(Nc3ccc(F)cc3C)n12	inconclusive: 1.03 µM [falling, full curve]	–
CCN1C(C(=O)c2ccccc2)=C(OC(=O)c2ccc(Cl)cc2)c2ccccc2S1(=O)=O	active: 20.6 µM	–
CCc1ccc2oc(-c3cccc(NC(=O)c4ccc(-c5cccc([N+](=O)[O-])c5)o4)c3)nc2c1	inconclusive: 7.31 µM [activator, partial curve]	–
O=C1c2ccccc2C(=O)c2c(NCCCN(CCO)CCO)cccc21	inconclusive: 29.1 µM [falling, single point]	–
Cc1cccc(OC(C)C(=O)N2CCC(c3nc4ccccc4o3)CC2)c1C (stereo not given)	inconclusive: 11.6 µM [falling, partial curve, poor fit]	–
CC(NC(=O)Cc1ccc([N+](=O)[O-])cc1)c1ccc2c(c1)OCO2 (stereo not given)	inconclusive: 25.9 µM [falling, partial curve, poor fit]	–
CCN1C(=O)/C(=C/c2cc(C)n(C)c2C)SC1=Nc1ccc(OC)cc1	inconclusive: 32.6 µM [falling, single point]	–
COc1ccc(-c2cc(-n3c(C(F)(F)F)nc4ccccc43)n(CCC#N)n2)cc1	inconclusive: 16.4 µM [falling, partial curve, poor fit]	–
COc1ccc(CNC(=O)C(C)n2nc(C)c3c(C)n(-c4ccc(C)cc4)nc3c2=O)cc1 (stereo not given)	inconclusive: 14.6 µM [falling, single point]	–
CN(C)c1nc(N/N=C/c2ccccc2O)nc(Nc2ccc(F)cc2)n1	inconclusive: 25.9 µM [falling, single point]	–
S=c1nc(-c2ccccc2)c(-c2ccccc2)n[nH]1	–	inactive: 6.97%
Cn1c(C(=O)N2CCN(c3ccc(Cl)cc3)CC2)cc2c(=O)[nH]c3ccccc3c21	inconclusive: 23.1 µM [falling, single point]	–
COC(=O)c1nc2nc(C)cc(=O)n2[nH]1	–	inactive: 8.65%
Cc1nc(N)nc(Nc2ccc(C#N)cc2)c1Br	–	inactive: 0.618%
Cc1c(C(C)C)c(=O)n(-c2ccc(S(=O)(=O)NC3CC3)cc2)n1C	inconclusive: 13 µM [falling, partial curve, poor fit]	–
CCOc1ccc(-n2c(-c3ccc(OC)cc3)cc3c2CC(C)(C)CC3=O)cc1	inconclusive: 29.1 µM [falling, single point]	–
Cn1c(Cl)c(C(=O)Nc2ccc(Cl)cc2)c2ccccc21	inconclusive: 1.46 µM [activator, partial curve, poor fit]	–
C=Cc1ccc(CSc2nc(-c3ccc(Cl)cc3)nc3c2Cc2c(CO)cnc(C)c2O3)cc1	inconclusive: 25.9 µM [activator, single point]	–

Some of these compounds in order of molar mass, high to low.
SMILES	Potency	activity change, negative = inhibition
O=C1C(=O)N(C2CCN(C(=O)c3ccc(F)cc3)CC2)CCN1Cc1ccc(F)cc1	inconclusive: 18.4 µM [activator, single point]	–
CC(NC(=O)Cc1ccc([N+](=O)[O-])cc1)c1ccc2c(c1)OCO2 (stereo not given)	inconclusive: 25.9 µM [falling, partial curve, poor fit]	–
Cn1nnc2cc(C(=O)NCCC3=CCCCC3)ccc21	inconclusive: 0.731 µM [activator, full curve, poor fit]	–

Continuation:

SMILES	Potency	activity change, negative = inhibition
CCCCN(CCCC)Cc1ccc(C(=O)NNC(=O)Nc2ccc(F)cc2)o1	–	inactive: 13.1%
S=C(Nc1cccc(Cl)c1)Nc1ccccc1Oc1ccccc1	inconclusive: 23.1 µM [falling, single point]	–
Cc1cccc(OCC(=O)N/N=C/c2cn[nH]c2-c2ccc(Cl)c(Cl)c2)c1	inconclusive: 23.1 µM [falling, partial curve]	–
O=C(COC(=O)c1ccc(-n2cnnn2)cc1)c1ccc(Br)cc1	inconclusive: 3.66 µM [activator, full curve, poor fit]	–
O=C(CC1C(=O)OCC2CCCCN21)Nc1ccccc1C(F)(F)F (stereo not given)	inconclusive: 0.0651 µM [falling, full curve, poor fit]	–
CCOC(=O)N1CCN(C(=S)NC(=O)c2cccc(OC)c2)CC1	inconclusive: 0.731 µM [falling, partial curve, poor fit]	–
COCCn1c(=O)[nH]c2cc(C(=O)OC)ccc2c1=O	–	inactive: -1.65%
Cc1cc2c(s1)c1cnn(Cc3cc(F)c(Cl)cc3Cl)c(=O)c1n2C	–	inactive: 5.03%
CCN(C(=O)c1cc(S(=O)(=O)N2CCCCC2)c[nH]1)c1ccc(OC)cc1	inconclusive: 11.6 µM [falling, partial curve]	–
O=C(Nc1ncccc1O)c1ccc(OCC2CCCO2)cc1 (stereo not given)	inconclusive: 23.1 µM [activator, single point]	–
CC(=O)Nc1ccc(S(=O)(=O)c2ccc([N+](=O)[O-])cc2)cc1	inconclusive: 4.11 µM [falling, single point]	–
Cn1c(NCc2ccccc2O)nc2ccccc21	inconclusive: 29.1 µM [activator, single point]	–
Cc1nc(-c2ccc(C(=O)Nc3cccc(F)c3)cc2)cs1	inconclusive: 10.3 µM [falling, single point]	–
CCOc1ccc(S(=O)(=O)N2CCN(C(=O)CCC(=O)N3CCOCC3)CC2)cc1	inconclusive: 5.8 µM [activator, partial curve, poor fit]	–
Cc1csc(NC(=O)/C=C/c2ccco2)n1	inconclusive: 9.2 µM [activator, partial curve]	–
O=C(NCc1ccco1)c1cc(-c2ccccc2)c(N2CCOCC2)s1	inconclusive: 2.06 µM [falling, partial curve, poor fit]	–
COc1ccc2oc(=O)c(C(=O)Nc3cccc(C)c3)cc2c1	inconclusive: 2.59 µM [activator, full curve]	–
CCN1C(=O)c2cccc3c(NS(=O)(=O)c4ccc(NC(C)=O)cc4)ccc1c23	inconclusive: 20.6 µM [falling, partial curve, poor fit]	–
O=C(Nc1ccc(Cn2cccn2)cc1)c1ccc(COc2cccc(Br)c2)cc1	inconclusive: 29.1 µM [falling, single point]	–
COc1ccc(-c2nc(SCC(=O)NC3CCCC3)c(-c3ccccc3)[nH]2)cc1OC	–	inactive: -21.6%
CC(OC(=O)c1ccc([N+](=O)[O-])o1)C(=O)Nc1nc(-c2ccc(F)c(F)c2)cs1 (stereo not given)	inconclusive: 3.66 µM [activator, single point]	–
O=C(Nc1cccc(-c2csc(Nc3cccc(C(F)(F)F)c3)n2)c1)c1ccccc1	inconclusive: 29.1 µM [falling, single point]	–

SMILES	Potency	activity change, negative = inhibition
Cc1ccc(C)c(NC(=O)Cn2ccn(-c3ccc4c(c3)OCO4)c(=O)c2=O)c1	inconclusive: 6.51 µM [activator, partial curve, poor fit]	–
CSC1=C(C#N)C(c2ccccc2Cl)C2=C(N1)c1ccccc1C2=O (stereo not given)	–	inactive: -17.8%
O=C(c1ccccc1)N(Cc1nc2ccccc2c(=O)[nH]1)C1CCCCC1	inconclusive: 0.651 µM [falling, partial curve, poor fit]	–
COc1ccc(-c2cn(-c3ccc(C)cc3C)c(=O)[nH]2)cc1OC	inconclusive: 13 µM [falling, partial curve, poor fit]	–
Cc1ccccc1NS(=O)(=O)c1cc(C(=O)Nc2cccc([N+](=O)[O-])c2)ccc1C	inconclusive: 20.6 µM [falling, single point]	–
Cc1ccc(Cn2ncn(-c3ccccc3)c2=O)cc1	inconclusive: 8.2 µM [activator, partial curve]	–
COc1cc(Cl)c(C)cc1NC(=O)CSCc1nc(-c2ccc(OC)c(OC)c2)no1	–	inactive: -14.7%
Cn1c(NCc2ccccc2F)nc2ccccc21	–	inactive: 111%
CCOC(=O)C1CCCN(c2ncnc3c2cnn3-c2ccc(OC)cc2)C1 (stereo not given)	inconclusive: 23.1 µM [activator, partial curve, poor fit]	–
Cc1ccc2cc3c(NC(=O)C4CCCO4)nn(CC(C)C)c3nc2c1 (stereo not given)	inconclusive: 4.11 µM [falling, partial curve, poor fit]	–
NC(=O)c1ccccc1OCc1nnc(-c2ccccc2Br)o1	inconclusive: 6.51 µM [activator, single point]	–
Cc1ccc(C(=O)N2CCN(C)CC2)cc1[N+](=O)[O-]	inconclusive: 25.9 µM [falling, partial curve, poor fit]	–
Cc1nnc(SCC(=O)Nc2ccccc2)[nH]c1=O	inconclusive: 0.651 µM [falling, full curve]	–
N=c1n(CCO)c2ccccc2n1CCOc1ccc(F)cc1	–	inactive: 7.23%
Cc1cccc(C)c1NC(=O)C1CCN(S(=O)(=O)c2cccc3nsnc23)CC1	–	inactive: 5.44%
N#Cc1ccc(C(=O)Nc2nc(-c3cccs3)c(C(=O)C(F)(F)F)s2)cc1	active: 5.17 µM	–
Cc1ncc(CO)c(/C=N/NC(=S)Nc2ccc(F)cc2)c1O	inconclusive: 29.1 µM [falling, single point]	–
CC(C)(C)c1ccc(C(=O)NC(=S)Nc2nc3c(s2)CCCC3)cc1	inconclusive: 20.6 µM [activator, partial curve]	–
Cc1ccsc1/C=C/c1ccc2ccccc2n1	inconclusive: 0.58 µM [activator, full curve, poor fit]	–
Cn1c2ccccc2c(=O)c2ccc(NCc3ccc4c(c3)OCO4)cc21	active: 25.9 µM	–
Cc1ccc(NC(=O)N2CCC(c3nc4c(nnn4Cc4c(F)cccc4Cl)c(=O)[nH]3)CC2)cc1	inconclusive: 32.6 µM [falling, single point]	–
